Results taken from patent US12121505B2, “Fap-activated therapeutic agents, and uses related thereto” (BACH BIOSCIENCES, LLC, priority 2014, dated 2024).
Like-named read-outs stand apart in the source and are kept apart here. The name of at least one read-out is uncertain.

Assays:
FAP [1] = molecular target: T1, FAP (Homo sapiens, UniProt Q12884); format: biochemical; conditions: 1.34×10^−8 M FAP, 37° C.
T1 sequence (Q12884 1-760): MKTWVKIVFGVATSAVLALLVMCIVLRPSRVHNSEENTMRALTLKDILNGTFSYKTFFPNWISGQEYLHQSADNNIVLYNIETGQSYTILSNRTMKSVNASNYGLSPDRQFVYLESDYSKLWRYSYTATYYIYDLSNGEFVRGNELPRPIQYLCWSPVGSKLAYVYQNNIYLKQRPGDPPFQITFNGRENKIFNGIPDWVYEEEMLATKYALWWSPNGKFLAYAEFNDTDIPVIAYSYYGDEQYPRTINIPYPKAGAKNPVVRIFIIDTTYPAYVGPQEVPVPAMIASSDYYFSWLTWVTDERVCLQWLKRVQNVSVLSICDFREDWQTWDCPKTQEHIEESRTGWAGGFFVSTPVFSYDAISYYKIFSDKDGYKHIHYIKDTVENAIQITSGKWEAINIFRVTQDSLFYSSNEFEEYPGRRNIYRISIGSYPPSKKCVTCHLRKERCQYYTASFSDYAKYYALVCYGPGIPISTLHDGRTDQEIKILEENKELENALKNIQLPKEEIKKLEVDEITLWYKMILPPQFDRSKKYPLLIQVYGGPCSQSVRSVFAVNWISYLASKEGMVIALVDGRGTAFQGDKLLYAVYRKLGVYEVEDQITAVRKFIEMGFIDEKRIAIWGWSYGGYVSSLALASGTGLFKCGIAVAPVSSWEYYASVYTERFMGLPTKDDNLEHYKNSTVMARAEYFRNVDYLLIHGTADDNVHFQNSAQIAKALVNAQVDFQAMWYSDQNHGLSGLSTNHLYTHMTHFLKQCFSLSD
Method: Michaelis-Menten enzyme kinetics for FAP were measured using a SpectraMax M2e microplate reader (Molecular Devices, Sunnyvale, CA, USA). The assays were performed in FAP buffer (50 mM […], 140 mM NaCl, pH 7.5) at 25° C., and the fluorescence continuously monitored at excitation and emission wavelengths of 380 and 460 nm, respectively. Kinetic constants (kcat and Km) were determined using GP-AMC (Bachem, Torrance, CA, USA), Ac-(D)-AP-AFC (MP Biomedicals, Solon, OH, USA) and test article concentrations equivalent to 0.1-5 times their respective Km values, and with 5-10 nM enzyme. All assays were performed in triplicate, and the results were calculated with a nonlinear regression analysis, relying on a Michaelis-Menten curve fit using GraphPad software.
3099DOX at various concentrations ranging from 8.5×10^−6 M to 6.9×10^−4 M was incubated with 1.34×10^−8 M FAP or PREP at 37° C., and released doxorubicin measured.

FAP [2] = molecular target: T1, FAP; assay: FAP digest of 5057DOX (kinetics); format: biochemical

| Structure (SMILES) | kcat/Km (FAP [1]) | kcat/Km (FAP [2]; assay 6, [FAP] 4.00 × 10^−9M) | kcat/Km (FAP [2]; assay 7, [FAP] 1 nM) |
| --- | --- | --- | --- |
| COc1cccc2c1C(=O)c1c(O)c3c(c(O)c1C2=O)C[C@@](O)(C(=O)CO)C[C@@H]3O[C@H]1C[C@H](NC(=O)[C@@H]2CCCN2C(=O)[C@@H](C)NC(=O)c2ccncc2)[C@H](O)[C@H](C)O1 [Compound 3099DOX] | 39171 M⁻¹ s⁻¹ | – | – |
| COc1cccc2c1C(=O)c1c(O)c3c(c(O)c1C2=O)C[C@@](O)(C(=O)CO)C[C@@H]3O[C@H]1C[C@H](NC(=O)[C@@H]2CC(F)(F)CN2C(=O)CNC(=O)c2ccnc3ccccc23)[C@H](O)[C@H](C)O1 [Compound 5057DOX] | – | kcat/Km 1.17 × 10^5M^−1sec^−1 | Kcat/Km 2.00 × 10^5M^−1sec^−1 |
